These results are taken from publication PMC10813020.

Protein sequences, listed by entry. Tags and fused reporters are not part of them.
UniProt Q5H8C4: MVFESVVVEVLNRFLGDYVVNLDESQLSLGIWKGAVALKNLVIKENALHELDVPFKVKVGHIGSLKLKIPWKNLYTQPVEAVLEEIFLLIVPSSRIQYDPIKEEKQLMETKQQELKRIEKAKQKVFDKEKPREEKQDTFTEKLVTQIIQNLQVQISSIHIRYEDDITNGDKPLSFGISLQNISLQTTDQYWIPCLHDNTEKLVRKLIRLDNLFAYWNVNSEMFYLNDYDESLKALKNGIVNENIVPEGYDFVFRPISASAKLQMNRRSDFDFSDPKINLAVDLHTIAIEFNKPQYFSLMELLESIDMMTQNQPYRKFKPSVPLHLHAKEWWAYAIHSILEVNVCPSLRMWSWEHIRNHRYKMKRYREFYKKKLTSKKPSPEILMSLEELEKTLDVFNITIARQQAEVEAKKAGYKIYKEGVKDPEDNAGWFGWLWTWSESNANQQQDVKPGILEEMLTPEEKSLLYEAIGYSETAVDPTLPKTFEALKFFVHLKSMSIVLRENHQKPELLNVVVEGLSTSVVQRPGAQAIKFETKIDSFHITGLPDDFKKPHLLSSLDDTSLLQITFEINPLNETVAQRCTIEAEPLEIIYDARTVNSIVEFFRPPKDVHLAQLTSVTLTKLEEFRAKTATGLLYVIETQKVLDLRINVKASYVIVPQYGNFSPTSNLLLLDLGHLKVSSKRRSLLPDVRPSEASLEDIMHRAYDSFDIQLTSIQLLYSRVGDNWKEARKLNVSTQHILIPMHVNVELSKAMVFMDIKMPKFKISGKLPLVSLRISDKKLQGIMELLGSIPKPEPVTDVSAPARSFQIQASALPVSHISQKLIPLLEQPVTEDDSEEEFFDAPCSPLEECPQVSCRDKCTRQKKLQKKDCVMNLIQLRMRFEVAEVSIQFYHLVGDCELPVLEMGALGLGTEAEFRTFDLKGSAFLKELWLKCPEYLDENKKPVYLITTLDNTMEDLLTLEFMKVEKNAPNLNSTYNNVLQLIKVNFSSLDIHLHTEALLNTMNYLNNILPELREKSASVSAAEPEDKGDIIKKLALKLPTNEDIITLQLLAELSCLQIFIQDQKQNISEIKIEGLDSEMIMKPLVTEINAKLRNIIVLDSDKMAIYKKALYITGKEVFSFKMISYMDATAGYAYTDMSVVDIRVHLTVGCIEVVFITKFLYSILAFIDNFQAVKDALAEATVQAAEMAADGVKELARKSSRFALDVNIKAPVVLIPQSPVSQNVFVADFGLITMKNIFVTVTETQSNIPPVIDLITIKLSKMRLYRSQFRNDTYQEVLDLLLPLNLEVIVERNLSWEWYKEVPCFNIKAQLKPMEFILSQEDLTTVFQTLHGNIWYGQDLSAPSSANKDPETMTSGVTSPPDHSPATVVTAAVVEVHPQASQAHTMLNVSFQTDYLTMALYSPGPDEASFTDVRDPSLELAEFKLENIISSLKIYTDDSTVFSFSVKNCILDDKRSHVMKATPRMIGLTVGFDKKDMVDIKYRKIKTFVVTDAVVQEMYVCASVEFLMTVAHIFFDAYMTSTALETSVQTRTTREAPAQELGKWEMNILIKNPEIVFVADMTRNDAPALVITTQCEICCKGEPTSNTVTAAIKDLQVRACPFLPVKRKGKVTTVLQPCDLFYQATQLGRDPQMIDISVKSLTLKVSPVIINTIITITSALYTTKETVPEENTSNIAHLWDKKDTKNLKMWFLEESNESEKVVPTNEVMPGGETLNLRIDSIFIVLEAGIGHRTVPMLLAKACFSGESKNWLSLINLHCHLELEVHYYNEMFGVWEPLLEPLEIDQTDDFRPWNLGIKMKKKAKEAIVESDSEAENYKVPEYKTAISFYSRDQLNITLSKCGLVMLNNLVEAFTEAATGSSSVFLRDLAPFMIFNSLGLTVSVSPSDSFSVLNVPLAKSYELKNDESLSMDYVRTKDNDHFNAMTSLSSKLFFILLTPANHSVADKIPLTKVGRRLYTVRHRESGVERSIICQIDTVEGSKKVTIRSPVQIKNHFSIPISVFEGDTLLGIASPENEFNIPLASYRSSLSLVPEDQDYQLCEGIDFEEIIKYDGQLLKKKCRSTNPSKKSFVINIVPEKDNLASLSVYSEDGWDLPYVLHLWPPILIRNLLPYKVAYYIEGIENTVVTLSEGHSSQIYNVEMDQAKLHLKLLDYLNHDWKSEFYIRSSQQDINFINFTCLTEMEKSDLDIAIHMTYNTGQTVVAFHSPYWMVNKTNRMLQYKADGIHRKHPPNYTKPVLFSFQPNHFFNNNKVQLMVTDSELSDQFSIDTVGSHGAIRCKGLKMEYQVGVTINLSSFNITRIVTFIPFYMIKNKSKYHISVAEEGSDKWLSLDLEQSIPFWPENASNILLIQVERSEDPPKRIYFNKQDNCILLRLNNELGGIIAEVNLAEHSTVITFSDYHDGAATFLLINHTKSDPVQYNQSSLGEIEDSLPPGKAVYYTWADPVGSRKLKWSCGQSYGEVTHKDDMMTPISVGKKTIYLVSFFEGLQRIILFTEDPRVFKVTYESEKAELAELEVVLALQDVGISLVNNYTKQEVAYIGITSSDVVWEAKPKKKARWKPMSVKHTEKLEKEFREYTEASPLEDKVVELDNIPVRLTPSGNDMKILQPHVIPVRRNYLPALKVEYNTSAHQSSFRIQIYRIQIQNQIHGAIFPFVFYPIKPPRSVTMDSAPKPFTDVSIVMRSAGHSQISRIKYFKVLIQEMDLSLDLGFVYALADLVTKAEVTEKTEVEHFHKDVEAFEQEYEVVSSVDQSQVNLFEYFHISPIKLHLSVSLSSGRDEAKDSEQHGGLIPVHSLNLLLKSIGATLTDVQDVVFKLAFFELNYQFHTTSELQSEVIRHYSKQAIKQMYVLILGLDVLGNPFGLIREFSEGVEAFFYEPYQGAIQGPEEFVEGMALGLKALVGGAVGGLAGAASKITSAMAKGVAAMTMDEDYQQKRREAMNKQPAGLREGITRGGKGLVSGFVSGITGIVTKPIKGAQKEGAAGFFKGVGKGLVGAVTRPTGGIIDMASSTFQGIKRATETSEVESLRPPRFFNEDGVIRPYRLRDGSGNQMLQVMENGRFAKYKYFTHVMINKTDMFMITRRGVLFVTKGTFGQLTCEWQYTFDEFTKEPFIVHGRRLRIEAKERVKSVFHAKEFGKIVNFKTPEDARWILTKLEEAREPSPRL

Results are given in words; binding and its absence hold for the method and conditions named. Binding seen in cells or lysates may run through a third protein. Some entries that bind do so weakly or less than the wild type.

In assay [1] the target is T1, isocitrate dehydrogenase 3 subunit alpha (IDH3A) (mouse (endogenous in epididymal sperm)) (UniProt Q9D6R2).
T1 sequence: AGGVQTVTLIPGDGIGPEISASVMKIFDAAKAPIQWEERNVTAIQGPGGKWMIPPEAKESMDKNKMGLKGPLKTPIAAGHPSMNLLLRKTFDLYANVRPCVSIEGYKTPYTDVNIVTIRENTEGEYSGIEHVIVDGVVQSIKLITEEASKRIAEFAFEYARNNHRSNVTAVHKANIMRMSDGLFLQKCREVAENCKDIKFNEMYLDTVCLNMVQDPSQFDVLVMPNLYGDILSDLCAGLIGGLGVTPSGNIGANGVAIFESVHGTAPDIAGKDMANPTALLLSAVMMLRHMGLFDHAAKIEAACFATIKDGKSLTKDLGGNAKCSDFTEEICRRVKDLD
As to the kind of experiment: co-IP; anti-chorein or anti-IDH3A antibody on Dynabeads Protein G; 500 µg soluble fraction of wild-type mouse epididymal sperm lysate (1% NP-40), 10 min at room temperature, three washes with lysis buffer; eluates by Western blotting. (In general: In western blotting, separated proteins are transferred to a membrane and probed.)

In assay [2] the target is chorein (VPS13A, vacuolar protein sorting 13 homolog A) (mouse (endogenous in epididymal sperm)) (UniProt Q5H8C4). Described as above.

“chorein (VPS13A, vacuolar protein sorting 13 homolog A) (from UniProt Q5H8C4 1-3166)”: in assay [1], the binding entry is given as “binds”.

B1: phosphoglycerate kinase 2 (PGK2) (protein, UniProt P09041 1-417)
chain: MALSAKLTLDKVDLKGKRVIMRVDFNVPMKNNQITNNQRIKAAIPSIKHCLDNGAKSVVLMSHLGRPDGIPMPDKYSLEPVADELKSLLNKDVIFLKDCVGPEVEQACANPDNGSIILLENLRFHVEEEGKGKDSSGKKISADPAKVEAFQASLSKLGDVYVNDAFGTAHRAHSSTVGVNLPQKASGFLMKKELDYFSKALEKPERPFLAILGGAKVKDKIQLIKNMLDKVNFMIIGGGMAYTFLKELKNMQIGASLFDEEGATIVKEIMEKAEKNGVKIVFPVDFVTGDKFDENAKVGQATIESGIPSGWMGLDCGPESIKINAQIVAQAKLIVWNGPIGVFEWDAFAKGTKALMDEVVKATSNGCVTIIGGGDTATCCAKWGTEDKVSHVSTGGGASLELLEGKILPGVEALSNM
With B1, the binding result in assay [1] is given as “binds”.

B2: acetyl-CoA acetyltransferase 1 (ACAT1) (protein, UniProt Q8QZT1 31-424)
chain: ASKPTLNEVVIVSAIRTPIGSFLGSLASQPATKLGTAAIQGAIEKAGIPKEEVKEVYMGNVIQGGEGQAPTRQATLGAGLPISTPCTTVNKVCASGMKAIMMASQSLMCGHQDVMVAGGMESMSNVPYVMSRGATPYGGVKLEDLIVKDGLTDVYNKIHMGNCAENTAKKMNISRQEQDTYALSSYTRSKEAWDAGKFASEITPITISVKGKPDVVVKEDEEYKRVDFSKVPKLKTVFQKENGTITAANASTLNDGAAALVLMTAEAAQRLNVKPLARIAAFADAAVDPIDFPLAPAYAVPKVLKYAGLKKEDIAMWEVNEAFSVVVLANIKMLEIDPQKVNIHGGAVSLGHPIGMSGARIVVHMAHALKPGEFGLASICNGGGGASALLIEKL
For the molecule B2, the binding entry in assay [2] is listed as “binds”.

B3: isocitrate dehydrogenase 3 subunit alpha (IDH3A) (protein, UniProt Q9D6R2 28-366)
chain: T1 sequence
On to B3, for which the binding entry in assay [2] is reported as “binds”.
